{"source": "PubChem BioAssay AID186", "about": "(DTP/NCI, 2004)", "test_system": "B6D2F1 mice, nontumored toxicity test, survival", "experiment": "NCI In Vivo Anticancer Drug Screen. Data for tumor model Nontumored Animals (Toxicity Test) in B6D2F1 (BDF1) mice", "note": "Shown are survivors of the treated group in tumour-free mice. Survivors were counted at the toxicity check, usually on the fifth day, unless a day is given; later deaths do not show. Schedule codes are those of the source, read here as Q, the interval in days (D) or hours (H), X, the number of doses. Some entries hold several experiments; the results are listed from low to high. Starred links: 1 amine or outer side, 2 acyl side, 3 side chain; linkers in the order of their positions; H or OH if unused. Positions of bridges follow the written chain, without caps; N, C: chain ends. Non-standard residues stand in square brackets, D forms with d. Residues, ends and D or L forms follow the SMILES beside them. Chains are numbered I, II in the order given. Actinocin(9to1) = Cc1c2oc3c(C)ccc(C(=O)[*:1])c3nc-2c(C(=O)[*:2])c(N)c1=O; aThr = C[C@H](O)[C@H](N)C(=O)O; NMeV = CN[C@H](C(=O)O)C(C)C; Sar = CNCC(=O)O", "data": [{"compound": "Cc1c2oc3c(C)ccc(C(=O)N[C@@H]4C(=O)N[C@H](C(C)C)C(=O)N5CCC[C@H]5C(=O)N(C)CC(=O)N(C)[C@@H](C(C)C)C(=O)O[C@H]4C)c3nc-2c(C(=O)N[C@@H]2C(=O)N[C@H](C(C)C)C(=O)N3CCC[C@H]3C(=O)N(C)CC(=O)N(C)[C@@H](C(C)C)C(=O)O[C@H]2C)c(N)c1=O", "note": "(I: [aThr][dV]P[Sar][NMeV] / II: [aThr][dV]P[Sar][NMeV]; ester I:1-I:C, II:1-II:C; linker I:N-II:N via Actinocin(9to1))", "values": [{"measurement": "survivor count", "setting": "dose: 0.01 mg/kg/injection, schedule: Q01DX009 (ip), vehicle: saline", "value": "5 of 5"}, {"measurement": "survivor count", "setting": "dose: 0.02 mg/kg/injection, schedule: Q01DX009 (ip), vehicle: saline", "value": "5 of 5"}, {"measurement": "survivor count", "setting": "dose: 0.03 mg/kg/injection, schedule: Q01DX009 (ip), vehicle: saline", "value": "5 of 5"}, {"measurement": "survivor count", "setting": "dose: 0.03 mg/kg/injection, schedule: Q04DX003 (ip), vehicle: water", "value": "8 of 8"}, {"measurement": "survivor count", "setting": "dose: 0.05 mg/kg/injection, schedule: Q01DX009 (ip), vehicle: saline", "value": "5 of 5"}, {"measurement": "survivor count", "setting": "dose: 0.05 mg/kg/injection, schedule: Q04DX003 (ip), vehicle: saline", "value": "4 of 4"}, {"measurement": "survivor count", "setting": "dose: 0.05 mg/kg/injection, schedule: Q04DX003 (ip), vehicle: water", "value": "4 of 4"}, {"measurement": "survivor count", "setting": "dose: 0.06 mg/kg/injection, schedule: Q01DX001 (ip), vehicle: water", "value": "8 of 8"}, {"measurement": "survivor count", "setting": "dose: 0.06 mg/kg/injection, schedule: Q04DX003 (ip), vehicle: water", "value": "8 of 8"}, {"measurement": "survivor count", "setting": "dose: 0.06 mg/kg/injection, schedule: Q08DX002 (ip), vehicle: water", "value": "8 of 8"}, {"measurement": "survivor count", "setting": "dose: 0.1 mg/kg/injection, schedule: Q04DX003 (ip), vehicle: saline", "value": "4 of 4"}, {"measurement": "survivor count", "setting": "dose: 0.1 mg/kg/injection, schedule: Q04DX003 (ip), vehicle: water", "value": "4 of 4"}, {"measurement": "survivor count", "setting": "dose: 0.12 mg/kg/injection, schedule: Q01DX001 (ip), vehicle: water", "value": "8 of 8"}, {"measurement": "survivor count", "setting": "dose: 0.12 mg/kg/injection, schedule: Q04DX003 (ip), vehicle: water", "value": "8 of 8"}, {"measurement": "survivor count", "setting": "dose: 0.12 mg/kg/injection, schedule: Q08DX002 (ip), vehicle: water", "value": "8 of 8"}, {"measurement": "survivor count", "setting": "dose: 0.13 mg/kg/injection, schedule: Q01DX001 (ip), vehicle: saline", "value": "4 of 4"}, {"measurement": "survivor count", "setting": "dose: 0.2 mg/kg/injection, schedule: Q04DX003 (ip), vehicle: saline", "value": "4 of 4"}, {"measurement": "survivor count", "setting": "dose: 0.2 mg/kg/injection, schedule: Q04DX003 (ip), vehicle: water", "value": "4 of 4"}, {"measurement": "survivor count", "setting": "dose: 0.25 mg/kg/injection, schedule: Q01DX001 (ip), vehicle: saline", "value": "4 of 4"}, {"measurement": "survivor count", "setting": "dose: 0.25 mg/kg/injection, schedule: Q01DX001 (ip), vehicle: water", "value": "8 of 8"}, {"measurement": "survivor count", "setting": "dose: 0.25 mg/kg/injection, schedule: Q04DX003 (ip), vehicle: water", "value": "8 of 8"}, {"measurement": "survivor count", "setting": "dose: 0.25 mg/kg/injection, schedule: Q08DX002 (ip), vehicle: water", "value": "8 of 8"}, {"measurement": "survivor count", "setting": "dose: 0.33 mg/kg/injection, schedule: Q01DX001 (ip), vehicle: saline", "value": "10 of 10"}, {"measurement": "survivor count", "setting": "dose: 0.4 mg/kg/injection, schedule: Q04DX003 (ip), vehicle: saline", "value": "4 of 4"}, {"measurement": "survivor count", "setting": "dose: 0.4 mg/kg/injection, schedule: Q04DX003 (ip), vehicle: water", "value": "4 of 4"}, {"measurement": "survivor count", "setting": "dose: 0.5 mg/kg/injection, schedule: Q01DX001 (ip), vehicle: saline", "value": "10 of 10 and 4 of 4"}, {"measurement": "survivor count", "setting": "dose: 0.5 mg/kg/injection, schedule: Q01DX001 (ip), vehicle: water", "value": "8 of 8"}, {"measurement": "survivor count", "setting": "dose: 0.5 mg/kg/injection, schedule: Q04DX003 (ip), vehicle: water", "value": "8 of 8"}, {"measurement": "survivor count", "setting": "dose: 0.5 mg/kg/injection, schedule: Q08DX002 (ip), vehicle: water", "value": "8 of 8"}, {"measurement": "survivor count", "setting": "dose: 0.75 mg/kg/injection, schedule: Q01DX001 (ip), vehicle: saline", "value": "10 of 10"}, {"measurement": "survivor count", "setting": "dose: 1.0 mg/kg/injection, schedule: Q01DX001 (ip), vehicle: saline", "value": "2 of 3"}, {"measurement": "survivor count", "setting": "dose: 1.0 mg/kg/injection, schedule: Q01DX001 (ip), vehicle: water", "value": "1 of 8"}, {"measurement": "survivor count", "setting": "dose: 1.0 mg/kg/injection, schedule: Q04DX003 (ip), vehicle: water", "value": "2 of 8"}, {"measurement": "survivor count", "setting": "dose: 1.0 mg/kg/injection, schedule: Q08DX002 (ip), vehicle: water", "value": "0 of 8"}, {"measurement": "survivor count", "setting": "dose: 62.0 mg/kg/injection, schedule: Q03HX008 (ip), vehicle: water", "value": "7 of 8"}, {"measurement": "survivor count", "setting": "dose: 1.0 micrograms/kg/injection, schedule: Q06HX024 (ip), vehicle: saline", "value": "8 of 8"}, {"measurement": "survivor count", "setting": "dose: 2.0 micrograms/kg/injection, schedule: Q06HX024 (ip), vehicle: saline", "value": "8 of 8"}, {"measurement": "survivor count", "setting": "dose: 4.0 micrograms/kg/injection, schedule: Q01DX009 (ip), vehicle: clinical formulation", "value": "8 of 8"}, {"measurement": "survivor count", "setting": "dose: 4.0 micrograms/kg/injection, schedule: Q01DX009 (ip), vehicle: saline", "value": "8 of 8"}, {"measurement": "survivor count", "setting": "dose: 4.0 micrograms/kg/injection, schedule: Q03HX016 (ip), vehicle: water", "value": "8 of 8"}, {"measurement": "survivor count", "setting": "dose: 4.0 micrograms/kg/injection, schedule: Q06HX024 (ip), vehicle: saline", "value": "7 of 8"}, {"measurement": "survivor count", "setting": "dose: 8.0 micrograms/kg/injection, schedule: Q01DX009 (ip), vehicle: clinical formulation", "value": "8 of 8"}, {"measurement": "survivor count", "setting": "dose: 8.0 micrograms/kg/injection, schedule: Q01DX009 (ip), vehicle: saline", "value": "8 of 8"}, {"measurement": "survivor count", "setting": "dose: 8.0 micrograms/kg/injection, schedule: Q01DX009 (ip), vehicle: water", "value": "8 of 8"}, {"measurement": "survivor count", "setting": "dose: 8.0 micrograms/kg/injection, schedule: Q03HX008 (ip), vehicle: water", "value": "8 of 8"}, {"measurement": "survivor count", "setting": "dose: 8.0 micrograms/kg/injection, schedule: Q03HX016 (ip), vehicle: water", "value": "8 of 8"}, {"measurement": "survivor count", "setting": "dose: 8.0 micrograms/kg/injection, schedule: Q06HX024 (ip), vehicle: saline", "value": "8 of 8"}, {"measurement": "survivor count", "setting": "dose: 16.0 micrograms/kg/injection, schedule: Q01DX009 (ip), vehicle: water", "value": "8 of 8"}, {"measurement": "survivor count", "setting": "dose: 16.0 micrograms/kg/injection, schedule: Q03HX008 (ip), vehicle: water", "value": "8 of 8"}, {"measurement": "survivor count", "setting": "dose: 16.0 micrograms/kg/injection, schedule: Q03HX016 (ip), vehicle: water", "value": "8 of 8"}, {"measurement": "survivor count", "setting": "dose: 16.0 micrograms/kg/injection, schedule: Q06HX024 (ip), vehicle: saline", "value": "8 of 8"}, {"measurement": "survivor count", "setting": "dose: 17.0 micrograms/kg/injection, schedule: Q01DX009 (ip), vehicle: clinical formulation", "value": "8 of 8"}, {"measurement": "survivor count", "setting": "dose: 17.0 micrograms/kg/injection, schedule: Q01DX009 (ip), vehicle: saline", "value": "8 of 8"}, {"measurement": "survivor count", "setting": "dose: 31.0 micrograms/kg/injection, schedule: Q01DX009 (ip), vehicle: water", "value": "8 of 8"}, {"measurement": "survivor count", "setting": "dose: 31.0 micrograms/kg/injection, schedule: Q03HX008 (ip), vehicle: water", "value": "8 of 8"}, {"measurement": "survivor count", "setting": "dose: 31.0 micrograms/kg/injection, schedule: Q03HX016 (ip), vehicle: water", "value": "8 of 8"}, {"measurement": "survivor count", "setting": "dose: 32.0 micrograms/kg/injection, schedule: Q01DX009 (ip), vehicle: clinical formulation", "value": "8 of 8"}, {"measurement": "survivor count", "setting": "dose: 32.0 micrograms/kg/injection, schedule: Q01DX009 (ip), vehicle: saline", "value": "8 of 8"}, {"measurement": "survivor count", "setting": "dose: 32.0 micrograms/kg/injection, schedule: Q06HX024 (ip), vehicle: saline", "value": "8 of 8"}, {"measurement": "survivor count", "setting": "dose: 62.0 micrograms/kg/injection, schedule: Q01DX009 (ip), vehicle: water", "value": "8 of 8"}, {"measurement": "survivor count", "setting": "dose: 62.0 micrograms/kg/injection, schedule: Q03HX016 (ip), vehicle: water", "value": "5 of 8"}, {"measurement": "survivor count", "setting": "dose: 64.0 micrograms/kg/injection, schedule: Q01DX001 (ip), vehicle: clinical formulation", "value": "8 of 8"}, {"measurement": "survivor count", "setting": "dose: 64.0 micrograms/kg/injection, schedule: Q01DX001 (ip), vehicle: saline", "value": "8 of 8"}, {"measurement": "survivor count", "setting": "dose: 64.0 micrograms/kg/injection, schedule: Q01DX009 (ip), vehicle: clinical formulation", "value": "8 of 8"}, {"measurement": "survivor count", "setting": "dose: 64.0 micrograms/kg/injection, schedule: Q01DX009 (ip), vehicle: saline", "value": "8 of 8"}, {"measurement": "survivor count", "setting": "dose: 64.0 micrograms/kg/injection, schedule: Q06HX024 (ip), vehicle: saline", "value": "6 of 8"}, {"measurement": "survivor count", "setting": "dose: 125.0 micrograms/kg/injection, schedule: Q01DX009 (ip), vehicle: water", "value": "8 of 8"}, {"measurement": "survivor count", "setting": "dose: 125.0 micrograms/kg/injection, schedule: Q03HX008 (ip), vehicle: water", "value": "0 of 8"}, {"measurement": "survivor count", "setting": "dose: 125.0 micrograms/kg/injection, schedule: Q03HX016 (ip), vehicle: water", "value": "0 of 8"}, {"measurement": "survivor count", "setting": "dose: 128.0 micrograms/kg/injection, schedule: Q01DX001 (ip), vehicle: clinical formulation", "value": "8 of 8"}, {"measurement": "survivor count", "setting": "dose: 128.0 micrograms/kg/injection, schedule: Q01DX001 (ip), vehicle: saline", "value": "8 of 8"}, {"measurement": "survivor count", "setting": "dose: 128.0 micrograms/kg/injection, schedule: Q01DX009 (ip), vehicle: clinical formulation", "value": "8 of 8"}, {"measurement": "survivor count", "setting": "dose: 128.0 micrograms/kg/injection, schedule: Q01DX009 (ip), vehicle: saline", "value": "6 of 8"}, {"measurement": "survivor count", "setting": "dose: 250.0 micrograms/kg/injection, schedule: Q01DX009 (ip), vehicle: water", "value": "3 of 8"}, {"measurement": "survivor count", "setting": "dose: 256.0 micrograms/kg/injection, schedule: Q01DX001 (ip), vehicle: clinical formulation", "value": "8 of 8"}, {"measurement": "survivor count", "setting": "dose: 256.0 micrograms/kg/injection, schedule: Q01DX001 (ip), vehicle: saline", "value": "8 of 8"}, {"measurement": "survivor count", "setting": "dose: 512.0 micrograms/kg/injection, schedule: Q01DX001 (ip), vehicle: clinical formulation", "value": "8 of 8"}, {"measurement": "survivor count", "setting": "dose: 512.0 micrograms/kg/injection, schedule: Q01DX001 (ip), vehicle: saline", "value": "8 of 8"}]}]}
